Results from patent US20170128480A1, “Cardiac Glycosides for the Treatment of Hypercholesterolemia” (priority 2015, published 2017).

Tested on: human ApoB-100
Assay: Drug treatment of humanized FRGN avatar mice, serum human ApoB-100 and albumin by ELISA
Type: in vivo
Conditions: same animals, 48-hour period
Description: Prior to any drug or vehicle treatment, the ratio of ApoB-100 to albumin is approximately 30% higher in the serum of avatars repopulated with hepatocytes from donor A compared to donor B (p=0.032) (FIG. 8A). Human ApoB-100 and albumin is then measured before and after treatment with DMSO (vehicle), Digoxin or Proscillaridin, over a 48-hour period of time (FIG. 8C). […] The concentration of human albumin is unaffected in the serum of the same animals (FIG. 8B).
A sandwich ELISA to detect human albumin in tissue culture supernatants and mouse sera uses a 1:100 dilution of a capture human albumin coating antibody (Bethyl laboratories, A80-129A) and a 1:85,000 dilution of a Horseradish Peroxidase (HRP) conjugated human albumin detection antibody (Bethyl laboratories, A80-129P). Bound antibody is detected using 3,3′,5,5′-tetramethylbenzidine (TMB) and the concentration of albumin in each sample is determined by comparing to a standard curve (Bethyl laboratories, RS10-110). Human lipidated apoB-100 is detected using a commercial sandwich ELISA (product code: 3715-1H-6; MabTech, Inc.) and detected using TMB. The concentration of apoB-100 is determined by comparing to a standard curve using lipidated apoB-100 supplied by the manufacturer.
Fah^−/−Rag2^−/−IL2 gr^−/−NOD (FRGN) mice are generated and supplied by Dr. Markus Grompe. […]

Row | Compound | concentration of human albumin in serum
1 | CC1O[C@@H](O[C@H]2C(O)C[C@H](O[C@H]3C(O)C[C@H](OC4CC[C@@]5(C)[C@H](CC[C@@H]6[C@@H]5C[C@@H](O)[C@]5(C)[C@@H](C7=CC(=O)OC7)CC[C@]65O)C4)OC3C)OC2C)CC(O)[C@@H]1O (some centres unmarked) [Digoxin] | unaffected
2 | C[C@@H]1OC(O[C@@H]2C=C3CC[C@@H]4[C@H](CC[C@]5(C)[C@@H](c6ccc(=O)oc6)CC[C@]45O)[C@@]3(C)CC2)[C@H](O)C(O)C1O (some centres unmarked) [Proscillaridin] | unaffected
